These are yes or no findings as the source states them, for the method shown. Binding seen in cells or lysates may run through a third protein. A yes stands for co-enrichment or nearness to the bait. Other partners may have been found.
T1: Gcn20-TAP (S. cerevisiae) (UniProt P43535)
T1 sequence: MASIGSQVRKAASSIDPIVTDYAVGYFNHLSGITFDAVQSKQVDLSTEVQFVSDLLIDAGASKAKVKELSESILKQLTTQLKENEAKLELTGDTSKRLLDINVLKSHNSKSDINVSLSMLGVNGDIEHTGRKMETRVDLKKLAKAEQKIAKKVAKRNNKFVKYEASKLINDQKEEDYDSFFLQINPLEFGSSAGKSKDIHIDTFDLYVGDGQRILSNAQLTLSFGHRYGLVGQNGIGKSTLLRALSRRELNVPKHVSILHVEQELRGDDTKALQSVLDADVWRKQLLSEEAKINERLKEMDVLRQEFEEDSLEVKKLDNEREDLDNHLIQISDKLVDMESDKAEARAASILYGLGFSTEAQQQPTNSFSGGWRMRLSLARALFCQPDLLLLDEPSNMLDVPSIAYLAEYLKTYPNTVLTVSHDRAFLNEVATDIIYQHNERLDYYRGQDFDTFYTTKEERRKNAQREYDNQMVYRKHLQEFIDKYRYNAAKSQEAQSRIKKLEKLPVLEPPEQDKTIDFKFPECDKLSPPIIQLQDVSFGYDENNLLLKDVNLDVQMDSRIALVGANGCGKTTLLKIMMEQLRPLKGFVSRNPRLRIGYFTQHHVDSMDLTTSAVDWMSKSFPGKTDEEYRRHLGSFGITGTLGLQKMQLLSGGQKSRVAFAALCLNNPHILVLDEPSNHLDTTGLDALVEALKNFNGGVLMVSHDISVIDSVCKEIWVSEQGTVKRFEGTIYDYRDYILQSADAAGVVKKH


Target: T1, Gcn20-TAP (S. cerevisiae)
Assay: affinity purification with mass spectrometry; TAP-tag in vivo pull-out from cleared lysate of the GCN20-TAP strain on IgG-coated magnetic Dynabeads, 1 h at 4 °C; eluted with AcTEV protease 2 h at 17 °C in 20 mM Hepes pH 7.4, 100 mM KOAc, 10 mM Mg(OAc)2, 1 mM DTT, 1 mM ADPNP; analysed by SDS-PAGE, immunoblot and mass spectrometry; cells with and without 3-AT

binding | Molecule
binds | eIF5A
binds | ribosome binding GTPase 2 (Rbg2) (protein, UniProt P53295 1-368) MGIIDKIKAIEEEMARTQKNKATEHHLGLLKGKLARYRQQLLADEAGSGGGGGSGFEVAKSGDARVVLIGYPSVGKSSLLGKITTTKSEIAHYAFTTLTSVPGVLKYQGAEIQIVDLPGIIYGASQGKGRGRQVVATARTADLVLMVLDATKSEHQRASLEKELENVGIRLNKEKPNIYYKKKETGGVKVTFTSPPKTNLTEQAIKMILRDYRIHNAEVLVRDDQCTIDDFIDVINEQHRNYVKCLYVYNKIDAVSLEEVDKLAREPNTVVMSCEMDLGLQDVVEEIWYQLNLSRVYTKKRGVRPVFDDPLVVRNNSTIGDLCHGIHRDFKDKFKYALVWGSSAKHSPQKCGLNHRIDDEDVVSLFAK

From PMC8040806
